Reference: the supplement of paper PMC10338343
± gives the standard deviation. The entries are a selection whose mix differs from that of the whole data set. The uncertainty is large for many entries. The list shows a part of the results.

Legend:
[1] = tested on: MILI (PIWIL2) piRISC loaded with L1MC piRNA (26 nt); assay: pre-steady-state target cleavage rate (min^-1); higher = faster piRNA-guided slicing of the target; details: guide: L1MC piRNA 5'p-UAACUAAAUACUAUGCAAGCUGUAGG
In short: (§1)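 Active affinity-purified piRISC (1 nM) loaded with one synthetic guide was mixed with a transcribed, DNA-blocked target RNA library (0.1 nM), with or without 500 nM GTSF1 partner protein, in HEPES–potassium acetate buffer at 33 °C for 0–8 or 0–960 min. Uncleaved targets were sequenced, normalised to depth and to weakly complementary targets, and pooled across three trials, with k3 capped at 0.0001 min^-1. The pre-steady-state cleavage rate was determined with a burst-and-steady-state fit.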

[2] = tested on: MIWI (PIWIL1) piRISC loaded with L1MC piRNA (30 nt); assay: as above; details: guide: L1MC piRNA 5'p-UAACUAAAUACUAUGCAAGCUGUAGGUCCU
In short: as §1

[3] = tested on: EfPiwi piRISC loaded with L1MC piRNA (26 nt); assay: pre-steady-state target cleavage rate (min^-1); guide: L1MC piRNA 5'p-UAACUAAAUACUAUGCAAGCUGUAGG; MIWI and MILI are mouse PIWI proteins and EfPiwi is from a freshwater sponge; tags in brackets are library labels; higher = faster piRNA-guided slicing of the target
In short: as §1

[4] = auxiliary factor: none (no GTSF1)
[5] = auxiliary factor: 500 nM Ephydatia muelleri Gtsf1
[6] = auxiliary factor: 500 nM mouse GTSF1
[7] = auxiliary factor: none (no Gtsf1)

Row | Sequence | pre-steady-state target cleavage rate [1, 4] | pre-steady-state target cleavage rate [2, 4] | pre-steady-state target cleavage rate [3, 5] | pre-steady-state target cleavage rate [2, 6] | pre-steady-state target cleavage rate [1, 6] | pre-steady-state target cleavage rate [3, 7]
1 | UCCUGGAACUGCUUCCAUAGUAUUUAGUUA | 0.00129 ± 0.0041 | 0.00168 ± 0.0039 | 0.00266 ± 0.0013 | – | – | –
2 | UCCUGGAUGAGCUUGCAUAGUAAAAUCAAA [g9:g21:cont:t1A] | 0.000105 ± 0.039 | 0.00026 ± 0.017 | 0.000591 ± 0.0069 | – | – | –
3 | UCCUGGAUGUGCUUGCAUAGUAAAUAGUAA | 0.00113 ± 0.0052 | 0.000557 ± 0.0061 | 0.000357 ± 0.011 | – | – | –
4 | UCCUGGAACAGCUUGCAUAGUUAUUAGAAA | 0.000957 ± 0.0063 | 0.00176 ± 0.0046 | 0.00355 ± 0.0039 | – | – | –
5 | UCCUGCUACAGCUUCCAUAGUAUUUACAAA | 0.00067 ± 0.009 | 0.000867 ± 0.011 | 0.00279 ± 0.0021 | – | – | –
6 | UCCUGCUACAGCUUGCUUAGUAUUUUCAAA | 0.000746 ± 0.0066 | 0.000676 ± 0.0089 | 0.00321 ± 0.003 | 0.11 ± 0.028 | – | –
7 | UCCUGGAUCUCGUUGCAUAGUAUUUUCAAA | 0.00163 ± 0.0034 | 0.000987 ± 0.005 | 0.000283 ± 0.013 | 0.00272 ± 0.0047 | – | –
8 | UCCUGGAUGUGGAUGCAUAGUAUUUAGAAA | 0.000922 ± 0.0074 | 0.00038 ± 0.011 | 0.00388 ± 0.0027 | 0.00077 ± 0.012 | – | –
9 | UCCUGGAUGUCCUUGCAUAGUAUUUAUUA | 0.00241 ± 0.0037 | 0.00242 ± 0.0035 | 0.00231 ± 0.0037 | 0.00333 ± 0.0051 | – | –
10 | UCCUGGAUGUCGAAUCAUAGUAUUUAGUUA | 0.00131 ± 0.0037 | 0.000812 ± 0.0072 | 0.000192 ± 0.028 | 0.00127 ± 0.0049 | – | –
11 | UCCUGGAUCAGCUUGCAUAGUAAAUAGAAA | 0.00163 ± 0.0037 | 0.00158 ± 0.003 | 0.00131 ± 0.0037 | 0.00348 ± 0.0042 | – | –
12 | UCCUGGAUGUCCUUGCUAUGUAUUUAGUUA | 0.0016 ± 0.0037 | 0.00114 ± 0.0073 | 0.000289 ± 0.014 | 0.00241 ± 0.0058 | – | –
13 | UCCUGGAACAGCUUGCAUUCUAUUUACAAA | 0.000549 ± 0.0083 | 0.000277 ± 0.01 | 0.000551 ± 0.0066 | 0.00386 ± 0.0046 | – | –
14 | UCCUCCUUACAGCUUGCAUAGUAUUUAGUUA | – | 0.0583 ± 0.011 | 0.117 ± 0.03 | 1.3 ± 0.052 | 0.301 ± 0.014 | –
15 | UCCUGGUACUGCUUCCAUAGUAUUUAGUUA | 0.00156 ± 0.0074 | 0.000752 ± 0.012 | 0.000916 ± 0.0063 | 0.00354 ± 0.0061 | – | –
16 | UCCUGGAUCAGCUUGCAUACUAUUUUCAAA | 0.000696 ± 0.008 | 0.000656 ± 0.013 | 0.000957 ± 0.0029 | 0.00597 ± 0.0043 | – | –
17 | UCCUGGAACAGCUUGCUAUGUAUUUAGUAA | 0.00121 ± 0.0047 | 0.00333 ± 0.002 | 0.000314 ± 0.0087 | 0.0313 ± 0.0087 | – | –
18 | UCCUGGAUGUCGUUGCAUAGAAUUUAGUUA | 0.00248 ± 0.0028 | 0.00099 ± 0.0056 | 0.00145 ± 0.0049 | 0.001 ± 0.0063 | – | –
19 | UCCUGGAUGACGUUGCAUAGUAUUUACAAA | 0.0012 ± 0.005 | 0.00035 ± 0.01 | 0.000435 ± 0.0094 | 0.00126 ± 0.0095 | – | –
20 | UCCUGGAUGUCGAUGCAUAGUAUUGUAGUUA | 0.00166 ± 0.0052 | 0.000487 ± 0.015 | 0.000234 ± 0.021 | 0.0018 ± 0.006 | – | –
21 | UCCUGGAUCAGCUUGCACUAGUAUUUAGUUA | 0.00117 ± 0.0054 | 0.0013 ± 0.0037 | 0.00365 ± 0.0027 | 0.00245 ± 0.0046 | – | –
22 | UCCUCAUACAGCUUGCAUAGUAUUUAGUUA | – | 0.0664 ± 0.01 | 0.234 ± 0.064 | 1.47 ± 0.054 | 0.319 ± 0.015 | –
23 | UCCUGGAACAGCUUGCAUAGUAUUAUCUUA | 0.00134 ± 0.0053 | 0.00408 ± 0.0029 | 0.00359 ± 0.0037 | 0.141 ± 0.028 | – | –

Some of the entries so far, field by field.
UCCUGGAACAGCUUGCAUAGUUAUUAGAAA
  pre-steady-state target cleavage rate [1, 4] = 0.000957 ± 0.0063
  pre-steady-state target cleavage rate [2, 4] = 0.00176 ± 0.0046
  pre-steady-state target cleavage rate [3, 5] = 0.00355 ± 0.0039
UCCUGCUACAGCUUCCAUAGUAUUUACAAA
  pre-steady-state target cleavage rate [1, 4] = 0.00067 ± 0.009
  pre-steady-state target cleavage rate [2, 4] = 0.000867 ± 0.011
  pre-steady-state target cleavage rate [3, 5] = 0.00279 ± 0.0021
UCCUGGAUGACGUUGCAUAGUAUUUACAAA
  pre-steady-state target cleavage rate [1, 4] = 0.0012 ± 0.005
  pre-steady-state target cleavage rate [2, 4] = 0.00035 ± 0.01
  pre-steady-state target cleavage rate [3, 5] = 0.000435 ± 0.0094
  pre-steady-state target cleavage rate [2, 6] = 0.00126 ± 0.0095

(listing goes on)

Row | Sequence | pre-steady-state target cleavage rate [1, 4] | pre-steady-state target cleavage rate [2, 4] | pre-steady-state target cleavage rate [3, 5] | pre-steady-state target cleavage rate [2, 6] | pre-steady-state target cleavage rate [1, 6] | pre-steady-state target cleavage rate [3, 7]
24 | UCCUGGUACAGCUUCCAUAGUUUUUAGUUA | 0.00111 ± 0.013 | 0.000202 ± 0.026 | 0.000588 ± 0.022 | 0.00197 ± 0.007 | – | –
25 | UCCUGGUACAGCUUGCAUUCUAUUUAGUAA | 0.00115 ± 0.009 | 0.000703 ± 0.0056 | 0.000193 ± 0.037 | 0.0022 ± 0.0098 | – | –
26 | UCCUGGAUCAGCUUGCAUAGUAAUUAGAUA | 0.00272 ± 0.0029 | 0.0126 ± 0.0029 | – | 0.216 ± 0.036 | – | 0.000679 ± 0.011
27 | UCCUGGUACAGCUUGCAUACAAUUUAGUAA | 0.00152 ± 0.0044 | 0.00166 ± 0.0037 | 0.00131 ± 0.0033 | 0.0076 ± 0.0052 | – | –
28 | UCCUGGAUGAGGUUGCAUAGUAUUUAGAAA | 0.00052 ± 0.011 | 0.000852 ± 0.0073 | 0.00315 ± 0.0029 | 0.00106 ± 0.0085 | – | –
29 | UCCUGGAUGUCGAUGCAUAGUAUUUAAUUA | 0.00107 ± 0.0067 | 0.000405 ± 0.018 | 0.00153 ± 0.0053 | 0.00251 ± 0.0049 | – | –
30 | UCCUGGAUGUCGUUCCAUACUAUUUAGUUA | 0.000382 ± 0.013 | 0.000512 ± 0.012 | 0.000211 ± 0.016 | 0.0033 ± 0.0053 | – | –
31 | UCCUGGAUCAGCUUGCUAUGUAUUUACAAA | 0.00104 ± 0.0053 | 0.00109 ± 0.0056 | – | 0.00128 ± 0.0079 | – | 0.00041 ± 0.015
32 | UCCUGGAUGUGCUUGCAUAGUAUUUAGGUA | 0.00112 ± 0.0081 | 0.0113 ± 0.0031 | 0.00137 ± 0.0053 | 0.0938 ± 0.016 | – | –
33 | UCCUGCUACAGCUUGCUUAGUAUUAAGUUA | 0.00265 ± 0.0028 | 0.00887 ± 0.0026 | 0.00988 ± 0.0037 | 0.403 ± 0.038 | – | –
34 | UCCUGGUACAGCUUGGAUAGUAUUUACAAA | 0.00149 ± 0.0056 | 0.00117 ± 0.004 | 0.00114 ± 0.0035 | 0.00354 ± 0.0047 | – | –
35 | UCCUGGAUGUGCUUCCAUUGUAUUUAGUUA | 0.0011 ± 0.0057 | 0.000608 ± 0.011 | 0.000961 ± 0.0043 | 0.00178 ± 0.006 | – | –
36 | UCCUGGAUGUCGUUGCAUAGUAUUUAGCUUA | 0.00198 ± 0.0045 | 0.00174 ± 0.0045 | 0.000654 ± 0.0057 | 0.00223 ± 0.005 | – | –
37 | UCCUGGAUCAGCUUCGUUAGUAUUUAGUAA | 0.000545 ± 0.008 | 0.000236 ± 0.009 | 0.0011 ± 0.0072 | 0.00163 ± 0.0066 | – | –
38 | UCCUGGAUCAGCUUGGAUAGUAUUUUCAAA | – | 0.000476 ± 0.013 | 0.00105 ± 0.0045 | 0.00139 ± 0.0085 | 0.000774 ± 0.013 | –
39 | UCCUGGAUGUCCUUGCUUAGUAUUAAGUUA | 0.00148 ± 0.0032 | 0.000814 ± 0.007 | 0.000312 ± 0.011 | 0.00413 ± 0.0044 | – | –
40 | UCCUGGUACAGCUUGGUAAGUAUUUAGAAA | 0.0011 ± 0.0052 | 0.000795 ± 0.0096 | 0.00051 ± 0.0065 | 0.00172 ± 0.0081 | – | –
41 | UCCUGGAUGUCCUUGCAUAGUUUUUAGAUA | 0.0011 ± 0.0057 | 0.00116 ± 0.0065 | 0.00217 ± 0.0042 | 0.00294 ± 0.004 | – | –
42 | UCCUGGAUGUCCUUGCAAACUAUUUAGUUA | 0.00159 ± 0.0035 | 0.00111 ± 0.0056 | 0.00123 ± 0.0063 | 0.00325 ± 0.0044 | – | –
43 | UCCUCCUUCAGCUUGCAUAGUAUUUAGUUA | – | 0.0537 ± 0.0085 | 0.158 ± 0.041 | 1.23 ± 0.036 | 0.297 ± 0.019 | –
44 | UCCUGGAUGUCGAUGCAUACUUUUUAGUUA | – | 0.000266 ± 0.024 | – | 0.000527 ± 0.019 | 0.000472 ± 0.021 | < 0.0001
45 | UCCUGGAUGUCGAACCAUAGUAUUUAUUA | – | 0.000347 ± 0.017 | 0.000144 ± 0.016 | 0.000109 ± 0.05 | 0.000148 ± 0.029 | –
